Results are given in words; binding and its absence hold for the method and conditions named.
Biological target: Ca2+/calmodulin-dependent protein kinase 1D, catalytic domain and autoinhibitory domain (residues 1-333) (human) (UniProt Q8IU85)
Experiment: SEC; Superdex-75 in 50 mM Na phosphate pH 7.5, 150 mM NaCl, 0.5 mM TCEP, 0.02% NaN3; final purification step; both purified

Amino acid sequences for entries named in this document (tags omitted). A change or cut given only in a name is not applied to a line headed by its entry. Chains listed by the source or under a name are the forms on record and can include a tag or linker. Residues count along the entry.
Ca2+/calmodulin-dependent protein kinase 1D, catalytic domain and autoinhibitory domain (residues 1-333) (Q8IU85, form named): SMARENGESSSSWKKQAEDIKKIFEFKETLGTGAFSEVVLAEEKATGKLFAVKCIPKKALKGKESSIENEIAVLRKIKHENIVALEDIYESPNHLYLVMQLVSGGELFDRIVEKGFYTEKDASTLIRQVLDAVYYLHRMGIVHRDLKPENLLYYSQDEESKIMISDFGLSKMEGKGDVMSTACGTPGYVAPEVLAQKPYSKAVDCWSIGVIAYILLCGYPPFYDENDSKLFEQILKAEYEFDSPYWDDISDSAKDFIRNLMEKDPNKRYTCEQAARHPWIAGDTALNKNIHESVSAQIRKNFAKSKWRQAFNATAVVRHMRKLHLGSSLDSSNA

binding: no binding
Substance: Ca2+/calmodulin-dependent protein kinase 1D, catalytic domain and autoinhibitory domain (residues 1-333) (from UniProt Q8IU85 1-333) (domain or fragment)

Source: publication PMC7462902
